Over roughly 33,000 sequences, “E-score (-0.5 to 0.5)” has its median near -0.015; the highest 2% begin near 0.3. The list shows a part of the results.
These sequences were tested against T1, Abf1 (UniProt P14164) (assay: PBM E-score (8-mer binding enrichment) (E-score (-0.5 to 0.5)); higher = stronger / more preferred TF binding). Conditions: protein concentration: 200 nM; construct: GST-full length.
T1 sequence: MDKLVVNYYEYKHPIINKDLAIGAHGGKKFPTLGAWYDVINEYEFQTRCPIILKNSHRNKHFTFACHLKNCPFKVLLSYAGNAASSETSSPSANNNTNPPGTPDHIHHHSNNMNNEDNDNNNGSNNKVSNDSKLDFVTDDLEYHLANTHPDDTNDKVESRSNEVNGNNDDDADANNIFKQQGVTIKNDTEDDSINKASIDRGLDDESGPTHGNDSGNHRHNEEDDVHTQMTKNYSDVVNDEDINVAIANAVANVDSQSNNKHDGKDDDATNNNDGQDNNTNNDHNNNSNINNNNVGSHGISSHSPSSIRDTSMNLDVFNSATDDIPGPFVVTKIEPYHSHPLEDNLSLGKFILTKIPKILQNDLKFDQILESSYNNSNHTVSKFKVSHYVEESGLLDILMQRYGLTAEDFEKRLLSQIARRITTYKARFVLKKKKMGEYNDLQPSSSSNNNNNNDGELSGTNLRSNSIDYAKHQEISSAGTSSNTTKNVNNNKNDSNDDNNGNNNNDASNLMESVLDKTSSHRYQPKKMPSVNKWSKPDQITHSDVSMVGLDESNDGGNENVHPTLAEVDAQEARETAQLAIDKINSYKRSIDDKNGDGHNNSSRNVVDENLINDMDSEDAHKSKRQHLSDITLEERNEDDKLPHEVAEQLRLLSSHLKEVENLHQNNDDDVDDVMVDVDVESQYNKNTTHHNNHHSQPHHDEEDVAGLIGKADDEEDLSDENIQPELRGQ
Procedure, shortened: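 GST-tagged yeast TFs (full-length or DNA-binding domain) were made by PURExpress in vitro transcription/translation and applied at about 100-200 nM to universal all-10-mer Agilent arrays. The arrays were made double-stranded by primer extension, on fresh or once-stripped slides. Bound protein was detected with fluorescent anti-GST, and scans were normalised with masliner. Each ungapped eight-base word, pooled with its reverse complement, received an E-score (modified Wilcoxon-Mann-Whitney statistic) from the Universal PBM Analysis Suite.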

Sequence	PBM E-score
CATGTACC	-0.013
AGGCTAAT	0.012
CACGCTTA	0.122
AATGCTGT	0.139
ACTGTAAA	0.107
AAACCAAA	0.0965
CATAAGAC	-0.116
ATGGGTAG	-0.0145
TGACCGAA	0.0507
GGCAGTAA	0.0511
GCAGCACA	0.025
ACCCGGAG	-0.0473
GCCGACAC	-0.142
GAGGATTA	-0.146
CTTCGATA	0.103
GAACTTGC	-0.181
GGTCAACC	-0.158
CCTCAGCC	-0.0588
AGATTACA	0.21
GCTAAACC	-0.00114
AGCTTTAA	0.118
GAATCGTA	0.211
GAGAGCAA	-0.101
GTTCGCGA	0.218
ACTAAGAC	0.0657

Sequence	PBM E-score
ACCGAGAC	-0.0366
AGTTATAC	0.0981
CTGTCCCA	-0.205
CTCGTCAA	0.0916
GAGCCGCC	-0.125
GCATGTCA	0.225
CCCTCCGG	-0.337
GGCCGAAC	-0.174
GCTTCAAC	-0.128
CGTCGAAA	0.193
GAGGTGAA	0.0188
CCAAAGAG	0.0455
TCGTATAA	0.4
AAATAACC	-0.0242
AATTTTGG	-0.129
ATACGCCA	0.0294
CACGCCCA	-0.0648
CGGCGGGA	-0.177
AAGGAATA	0.0414
AGAGGAGG	-0.199
CAACCGTG	0.0898
CCCACATC	-0.153
ACGAGTAC	0.188
CTAGCTTC	0.0299
AACATTTG	-0.0039

Sequence	PBM E-score
ACATCTCT	0.00147
AAAACGCG	0.0522
GGCAAAAA	0.145
AGTCGTCA	0.207
CCCTACAA	-0.11
GGAGGGTA	-0.0628
ACCACCTC	-0.0599
TGGCCAAA	-0.0854
GATTCGCC	-0.0445
CAGTTTCC	-0.0898
GATCGTAC	0.151
AAGGTCCG	-0.00447
CGCCAGTA	-0.135
CAACCTCG	0.0527
CGAATACG	0.189
ACCGGAGC	-0.123
CGGCATCC	-0.0216
AAGCAGGT	-0.119
ACGCCACA	0.0362
ACCTCCCT	-0.208
CTTCCCTC	-0.197
CTGTAAAC	-0.153
TAGAGGGA	-0.142
CGTATACC	0.036
AGTAAGTC	-0.15

Sequence	PBM E-score
CCAATCTA	-0.114
AATCCCGC	-0.0179
TACCAACA	-0.0455
TCTGTGCA	0.131
TGGAGAAA	-0.139
GCCTGACA	-0.187
CTATCTAC	0.0715
AGGCTCAA	-0.133
CGCAATTC	-0.0731
ACGCGTAA	-0.0946
ATGAATGG	0.0298
CAAAGCGC	-0.107
ACCCGGAT	-0.341
ACACGGCG	0.305
CGGACCAG	-0.125
ATCCTTAG	-0.0241
ATCTCACG	0.197
GGCTATAA	-0.0591
AGATAGAT	-0.144
ACCACAGG	-0.206
ATCCCGCC	-0.0962
GCAACAGA	0.0303
AACCTCAT	0.0609
AATGAACA	-0.0119
GTATACGA	0.242

Sequence	PBM E-score
GGCACGCC	-0.283
CATTTTCC	0.137
TTAAACAA	-0.0229
CATCCGGG	-0.161
CAAAAGGC	-0.00363
CGGGCCTA	-0.171
GACGAGCC	0.142
GAACTTTA	-0.014
CATTGATC	0.199
ATGTATAC	0.0444
ACGACCCA	0.0792
GCATGCTA	-0.0679
CGGCCACA	0.0795
CCAAAGCC	-0.256
CCGTCTAG	0.136
ACACAGTC	-0.0917
GTCTCTAA	0.172
AACCGCAA	-0.0358
ACTACATA	0.14
CTGATGCC	-0.0822
CTTTCTCC	-0.317
CTAATCAC	0.251
GTTCCCGA	-0.0493
AAGGACTG	-0.0137
GCCCTAAC	-0.0553

Sequence	PBM E-score
CTCATGGC	-0.0558
TAGCTATA	0.0132
ATGGAATC	0.0484
ACGTGCGA	0.026
CTCACCAA	-0.0657
ATCAAGAG	0.00184
ATTTGTCC	0.132
CAGCACCC	-0.122
GCTGGCAC	0.193
ATTGGACC	-0.133
CACATATG	-0.19
ACAATCCT	-0.122
ATGTGTCA	0.233
AACCCTGC	-0.0986
GATTTATA	0.166
CTGGCTAC	-0.122
CGGGCTGC	-0.159
GTACCTAA	0.123
ACCCGCCC	-0.143
AACTCTGG	-0.0426
AATAATCC	-0.0862
CGTAGCTA	0.15
ACGTCTTG	0.117
CTATGGAC	0.0299
TATCCACA	0.0114

Sequence	PBM E-score
ATTGCTGG	-0.181
AGTTTCCA	-0.0143
AGAGGCTA	-0.289
GTAGGCAA	-0.0899
GTTCCTCA	-0.146
AGCAATAG	-0.13
AACATACA	-0.0901
ACCGTGCG	0.315
CGGCTTAA	0.0585
GATCTACC	-0.00382
CCCCACAG	-0.0954
ACGTCGTG	0.213
CATTCTAC	0.0157
AGCATCGC	-0.281
GACTCCTA	-0.222
AGCGTATG	-0.154
CCCGGGTA	-0.0101
AAACGTTG	-0.155
AACGACTT	0.198
CTTAGAAG	-0.115
CAATACTA	0.0883
CAGTCATG	-0.0906
ATTTTTTG	0.0407
GCCCAAAA	-0.114
CCGAACGG	-0.0461

Single entries from the results shown:
Entry of CCAAAGCC under PBM E-score: -0.256
Entry of AGCTTTAA under PBM E-score: 0.118
Entry of AGATAGAT under PBM E-score: -0.144
Entry of CTAATCAC under PBM E-score: 0.251
Entry of ACCCGCCC under PBM E-score: -0.143
Entry of GCCCTAAC under PBM E-score: -0.0553

More entries.

Sequence	PBM E-score
CTCCACAA	-0.187
GGGTAGGA	-0.0723
CTAAAGGA	0.00369
AACCCTCC	-0.261
ATAAGTCG	0.00336
AGTGGCAA	-0.0491
CACGCTCA	0.0694
AGGAGACT	-0.117
AACGTTGG	-0.0683
CACCAAGA	-0.0277
ATTGGTCC	0.0312
ATGGCGGA	-0.245
GCGGATAC	0.0748
ATGTGCGA	-0.00914
CGTGCGCC	0.122
GAGTACTA	0.215
GAAATTTC	-0.256
AGGACCGC	-0.178
AGCAAAGA	-0.226
GGGGGTAC	-0.201
CGACTACA	0.147
AGCTATAG	-0.217
ATGGACTG	0.00521
CTGAAAGC	0.0255
AATTTCTC	0.00596

Sequence	PBM E-score
TCCACCAA	-0.0178
AGTTGAAT	0.14
AAAGAGCT	-0.111
CAGCTCGC	-0.137
CGACAACC	0.0851
AACCAAGA	-0.00678
AAGGGATA	0.0355
GCAAGCGA	0.143
ACTTGAGC	-0.138
GATTTTAC	0.141
ACATGAGT	-0.0188
GTCGTGGA	0.178
CCTATATC	-0.0418
AATTCCTC	-0.169
CTCATAAG	-0.0856
TCTGCGCA	0.017
AGAGGTAC	-0.128
CGAAATAG	0.00531
CTCGAAGC	-0.0234

For convenience, some entries already given.
Sequence	PBM E-score
CTCATAAG	-0.0856
TCTGCGCA	0.017
AGAGGTAC	-0.128

— the supplement of paper PMC3334620
